This assay can be described thus: qHTS Assay to Find Inhibitors of Chronic Active B-Cell Receptor Signaling. The settings on record: ABC-DLBCL IkBa-CBG/CBR reporter, luminescence ratio (green luciferase fused to IkBa over red control in TMD8 lymphoma cells), 4 h. A digest of the protocol:
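Doxycycline induced both beetle luciferases in TMD8 lymphoma cells; IKK-driven degradation limits the IkappaBalpha-fused green signal, while red luminescence normalises for cell number and nonspecific effects. Compounds tested up to 46 uM, 4 hrs.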

Setting [1] is: measured here: CBR red luminescence, cell number.
Setting [2] is: measured here: IkBa-CBG green luminescence.

The other results are listed elsewhere or left out. These are further read-outs of the screen, such as a control signal, another cell line or another target. No call is given for them. The list favours compounds with an active or inconclusive main result. The note in brackets gives the kind of curve behind each potency; many fits are weak.

Usually AC50 stands for the concentration at which the activity in the assay is half-maximal.

Take `CCn1cc(CN2CCc3c([nH]c4ccccc34)C2c2cccc(OC)c2OC)c(C)n1` (centres undefined): the AC50 under setting [1] is 10 µM [falling, partial curve, poor fit].

As to `Cc1cccc(-c2cc3c(N=O)c4ccccc4c-3n[nH]2)c1`, the half-maximal activity concentration (AC50) under setting [1] is 1.78 µM [falling, full curve, poor fit]. In the case of `COc1ccc(/C=N\NC(=O)c2ccccc2Cl)cc1COc1c(F)c(F)c(F)c(F)c1F`, the AC50 under setting [1] was 3.55 µM [falling, partial curve, poor fit]. With `Cc1cccc(/C=C/c2nc3ccccc3c(=O)[nH]2)c1`, the AC50 under setting [2] was 3.16 µM [rising, full curve, poor fit]. Take `CCNc1ccc(S(=O)(=O)N(C)C)cc1NCC(=O)Nc1ccc(Br)cc1F`: the AC50 under setting [1] was 29.1 µM [falling, single point].

With `CC[C@@]12C(=O)N(c3cccc(F)c3)C(=O)N1[C@H](c1ccc(F)cc1)[C@@H]1C(=O)N(C3CCCCC3)C(=O)[C@@H]12`, under setting [1], the AC50 was 10 µM [falling, partial curve].

For `O=C(COc1ccc(Cl)cc1Cl)NCc1ccco1`, under setting [1], the AC50 is 1.41 µM [rising, full curve, poor fit].

Consider `COc1ccc(CCN2C(=O)CSC2=Nc2ccc(C(C)C)cc2)cc1OC`, for which the AC50 under setting [1] is 35.5 µM [falling, single point]. For the compound `Cc1c(C(=O)N2CCC(C)CC2)sc2ncnc(N(C)c3ccccc3)c12`, under setting [1], the AC50 was 6.51 µM [rising, single point]. As for `CSc1ccccc1N=Cc1nc(-c2ccccc2)oc1O`, the AC50 under setting [1] was 20 µM [falling, partial curve, poor fit].

Consider `Cc1cc(-c2nn(-c3ccccc3F)cc2CN(C)CC(O)CO)c(C)s1` (centres undefined), for which the AC50 under setting [1] is 4.47 µM [rising, full curve]. Turning to `Cc1ccc(-n2ncc3c(NCC4CCCO4)ncnc32)c(C)c1` (centres undefined), under setting [1], the AC50 is 4.11 µM [rising, full curve, poor fit]. As to `COc1ccc(-c2cc3cc(OC)c(OC)cc3c(C)n2)cc1`, the AC50 under setting [1] was 0.355 µM [rising, full curve, poor fit].

Turning to `COc1ccc(/C=N/NC(=O)c2ccn[nH]2)cc1CSc1ccccn1`, the concentration at half-maximal activity (AC50) under setting [1] is 11.2 µM [falling, partial curve, poor fit]. As to `O=C(NC1CCCCC1)C(c1ccncc1)N(Cc1ccccc1)C(=O)c1ccc(-c2ccccc2)[nH]1` (centres undefined), the half-maximal activity concentration (AC50) under setting [1] was 35.5 µM [falling, single point]. Turning to `Fc1ccccc1/C=N/NC(=S)Nc1ccc(Cl)cc1Cl`, the AC50 under setting [1] was 10.3 µM [rising, partial curve, poor fit]. For `O=C(OCC1COc2ccccc2O1)c1ccccc1F` (centres undefined), under setting [1], the AC50 is 3.16 µM [rising, partial curve, poor fit]. As to `COCCNc1c(-c2ccc(OC)c(OC)c2)nc2ccc(Cl)cn12`, the AC50 under setting [1] is 3.55 µM [rising, single point]. Regarding `Cc1cc(=O)c2cc(Br)ccc2[nH]1`, under setting [1], the AC50 was 16.4 µM [falling, single point]. In the case of `O=C(NN=C1CCCC1)c1cc(Cl)cc(Cl)c1O`, the AC50 under setting [1] is 2 µM [falling, full curve]. As to `CC(=O)N1c2ccc(S(=O)(=O)N3CCCCC3)cc2CC1C` (centres undefined), the AC50 under setting [1] is 5.62 µM [rising, full curve, poor fit].

For `CCS(=O)(=O)N1CCN(c2ccccn2)CC1`, under setting [1], the AC50 is 29.1 µM [falling, single point]. `CC1=NN(C(N)=S)C(=O)C1N=Nc1cccc([N+](=O)[O-])c1` (centres undefined): under setting [2], the AC50 was 0.631 µM [falling, full curve, poor fit].

Turning to `O=C(O)CCCc1ccc2ccc3cccc4ccc1c2c34`, the half-maximal activity concentration (AC50) was 1.26 µM [falling, full curve] under setting [1] and 0.631 µM [rising, full curve] under setting [2]. Turning to `Cc1cccc2c1ncc1c(=O)n(-c3ccccc3)[nH]c12`, the AC50 under setting [1] was 7.94 µM [falling, partial curve, poor fit]. Turning to `COc1ccc(/C=N/NC(=O)c2ccc3c(c2)OCO3)cc1`, under setting [1], the AC50 was 4.47 µM [falling, partial curve]. With `Fc1ccc(/C=C2\CCCC3=C2Nc2ncnn2C3c2ccc(F)cc2)cc1` (centres undefined), the AC50 under setting [1] was 6.31 µM [falling, partial curve].

`O=C(OCc1ccc(O)cc1)c1c(-c2ccsc2)oc2ccc(N3CCOCC3)cc12`: under setting [1], the AC50 was 3.55 µM [falling, full curve]. Same read-out and setting: next, `O=C(OCC(=O)N1CCCC1)c1cncc(Br)c1`: 0.731 µM [rising, full curve, poor fit]; `CCN(CC)CCCOC(=O)C(c1ccccc1)c1ccccc1`: 4.47 µM [falling, partial curve, poor fit].

`COc1ccc(/C=C/C(=O)OCC(=O)c2c(C)[nH]c3ccccc23)cc1OC`: under setting [1], the AC50 is 10.3 µM [rising, partial curve, poor fit]. `COc1ccc(OC)c(S(=O)(=O)N2CCCCC2C(=O)O)c1` (centres undefined): the AC50 under setting [1] was 6.51 µM [falling, single point].

Take `O=c1c2ccccc2n2c(=S)[nH]nc2n1-c1ccccc1`: the AC50 under setting [1] is 20 µM [rising, partial curve, poor fit]. As to `CCn1ncc(/C=C/C(=O)Nc2c(C)nn(Cc3ccc(Cl)cc3Cl)c2C)c1C`, the AC50 under setting [1] is 35.5 µM [falling, single point]. With `CCC(Sc1nc2c(sc3ccccc32)c(=O)n1CCc1ccc(OC)c(OC)c1)C(=O)N(CC)CC` (centres undefined), the AC50 under setting [1] is 5.01 µM [falling, full curve].

In the case of `COc1ccc(NC(=O)CSc2nnc(Cn3nnc4ccccc43)n2C)cc1`, under setting [1], the AC50 is 6.51 µM [falling, single point]. As to `O=c1nc(-c2ccccc2)cn[nH]1`, under setting [1], the AC50 was 12.6 µM [falling, partial curve, poor fit]. Take `O=C(NC1CCCCC1)c1ccc2c(c1)OCCO2`: the AC50 under setting [1] is 6.31 µM [falling, partial curve, poor fit].

In the case of `CC[C@]12c3[nH]c4ccc(Cl)cc4c3CCN1C(=O)[C@@H](CC(=O)NCCc1ccccn1)C[C@@H]2C(=O)N1CCN(C(=O)C2CC2)CC1`, under setting [1], the AC50 is 25.9 µM [rising, single point]. For `CC(C)CC(=O)n1sc(NC(=O)c2ccccc2)nc1=O`, the AC50 under setting [1] was 7.08 µM [falling, partial curve, poor fit]. Consider `CC(OC(=O)c1ccc(Cl)c([N+](=O)[O-])c1)C(=O)N1CCN(Cc2ccccc2)CC1` (centres undefined), for which, under setting [1], the AC50 was 29.1 µM [falling, single point].

`CCCCCN(C(=O)CCC(=O)OC(C)C(=O)NC1CCCCC1)c1c(N)n(CCCC)c(=O)[nH]c1=O` (centres undefined): the AC50 under setting [1] is 4.61 µM [falling, partial curve, poor fit]. Same read-out and setting: next, `O=C1NCC(c2ccccc2)C1C(=O)N/N=C\c1ccc(-c2cccc(Cl)c2Cl)o1` (centres undefined): 9.2 µM [falling, partial curve, poor fit]; `COc1ccc(S(=O)(=O)Nc2nccs2)cc1OC`: 35.5 µM [rising, single point]. Take `O=[N+]([O-])c1ccc(N2N=C(c3ccccc3)CC2c2ccccc2O)cc1` (centres undefined): the AC50 under setting [1] is 28.2 µM [falling, single point]. With `CCOc1ccc(-c2nc(C#N)c(N3CCN(C)CC3)o2)cc1`, the AC50 under setting [1] is 20.6 µM [rising, partial curve, poor fit]. Same read-out and setting: the same measure for `CCOc1ccc(NS(=O)(=O)CC23CCC(CC2=O)C3(C)C)cc1` (centres undefined): 32.6 µM [falling, single point]. With `O=C(N/N=C/c1coc2ccccc2c1=O)c1cc2ccccc2o1`, the AC50 under setting [1] is 16.4 µM [falling, partial curve].

As to `CN(C)c1cc[n+](CC(=O)c2ccc(OC(F)F)cc2)cc1`, under setting [1], the AC50 is 0.794 µM [rising, full curve, poor fit]. Take `CCOC(=O)N1CCN(C(=O)CS(=O)Cc2nc(-c3cccc(C)c3)oc2C)CC1` (centres undefined): the AC50 under setting [1] is 6.51 µM [falling, single point]. Regarding `Fc1ccccc1NC(=S)N(CCN1CCCCCC1)Cc1cccs1`, the AC50 under setting [1] was 35.5 µM [falling, partial curve, poor fit].

`O=C(Nc1cc(C(F)(F)F)ccc1Cl)C(Sc1cccc[n+]1[O-])c1ccccc1` (centres undefined): the AC50 runs as follows: under setting [1], 29.1 µM [falling, single point]; under setting [2], 29.1 µM [falling, single point]. For `Cc1cc(NC(=O)COC(=O)c2cccc(S(=O)(=O)N(C)C3CCCCC3)c2)no1`, under setting [1], the AC50 was 5.62 µM [rising, single point]. The same measure, in the same setting: next, `CCOc1ccc(C2c3c(oc4ccccc4c3=O)C(=O)N2CCCN2CCOCC2)cc1` (centres undefined): 29.1 µM [rising, single point]; `COC(=O)C1C(=O)C2=C(CC1C)NC(C)=C(C(=O)OCCOc1ccccc1)C2c1ccc(C)o1` (centres undefined): 29.1 µM [falling, single point]; `Cc1ccccc1-n1c(SCC(=O)Nc2ccccc2Cl)nc2n[nH]c(C)c2c1=N`: 11.2 µM [rising, partial curve, poor fit].

As to `CCN(C(=O)c1ccc2c(SCC(=O)O)c3c(nc2c1)CCC3)c1cc(Cl)ccc1OC`, the AC50 under setting [1] is 3.55 µM [falling, partial curve, poor fit]. Take `CCn1c(C)csc1=NC(=O)c1ccccc1O`: the AC50 under setting [1] is 1.16 µM [rising, partial curve, poor fit].

On to `CN1CCN(C(=O)CN(CCc2ccccc2)S(C)(=O)=O)CC1`, for which the AC50 under setting [1] was 32.6 µM [rising, single point].

With `O=C(CCCCCNC(=S)Nc1ccccc1)C[N+](=O)[O-]`, the AC50 under setting [1] is 12.6 µM [falling, partial curve]. Regarding `COc1ccc2c(c1)OC1(C)CC2C(C(=O)c2ccccc2OC)C(=O)N1` (centres undefined), the AC50 under setting [1] is 23.1 µM [rising, single point]. On to `O=C(NCCCN1CCCC1=O)c1cn(-c2ccccc2)nc1-c1ccccc1`, for which the AC50 under setting [1] was 7.08 µM [rising, partial curve, poor fit].

For the origin of these results see PubChem BioAssay AID493014 (National Center for Advancing Translational Sciences (NCATS), 2011).
